Assay results taken from patent US20160243230A1.
No constants are given. Whether binding was seen depends on the method and setting. A result given as binding can be weak or reduced; the word gives no strength. One block for each binder: values may come before it.

Assays:
[1] = target: murine AA amyloid (amyloid enhancing factor, AEF) (mouse); assay: pulldown with 125I-peptide, mAA liver homogenate, 0.15 M and 1.0 M NaCl
[2] = target: murine AA amyloid (amyloid enhancing factor, AEF) (mouse); assay: in vivo, AA mice pre-targeted with p66, IHC and autoradiography
[3] = target: murine AA amyloid (amyloid enhancing factor, AEF) (mouse); assay: in vivo, IHC of tissues of p66-treated AA mice
[4] = target: murine AA amyloid (amyloid enhancing factor, AEF) (mouse); assay: in vivo, microautoradiography of tissues of AA mice
[5] = target: murine AA amyloid (amyloid enhancing factor, AEF) (mouse); assay: in vivo, IHC of tissues of p5+14-treated AA mice
[6] = target: murine AA amyloid (amyloid enhancing factor, AEF) (mouse); assay: EuLISA, peptide added to AEF-coated wells, detected with anti-peptide mAb

- binding [1]: binds
- binding [2]: binds
- binding [3]: binds
- binding [4]: binds
B1: peptide p66 (11-1F4 peptope) (peptide)
peptide: KAQKAQAKQAKQAQKAQKAQAKQAKQAQKAQKAQAKQAKQSVTVVTKHYAAFPENLLI

- binding [5]: binds
- binding [1]: binds
- binding [6]: binds
Binder: KAQKAQAKQAKQAQKAQKAQAKQAKQAQKAQKAQAKQAKQ [peptide p5+14]
